# Source: the supplement of paper PMC8728848
# The other results are listed elsewhere or left out.
# B1: PX14343E-bfa-545-24-545 (Bacteroides fragilis) (protein)
# chain: LDRYPQEELSDGSFWKTPDDANKVVSDLYGYLSTWDQDNDINSDNATMGIKWAAGNVSKGIYDPADQGWSGDYANVRQCNLILSKIDEIPDYPEADKTKALGQVYFFRAYIYFNLIRSFGDVPYIDKPLDLKDMEGITRMPRAEVYEKIMADFDKAIAALPTEWGASDYGRVTKGAAMAMKARAALYYGNWDTAATEAKNVMDLGLYELYDKDNTGKYAELFWEKADGCDEFILVTQFNYPDKTHYLMGWECFPTKGWGGMNPTQSLVDAFEDSEGAPISKSKIYDPTDPFKNRDPRLEVDILHDGEEMYGVTIKVAPLASSGSTGINQHNDATETGYYGQKWLDPSLDPLSDGWNMGKDWVHIRYAEVLLTYAEAKNELQGLDPEAFDAVNQVRRRVGMPELQNTDPSKPTYCATQDDLRQRIRNEWRVEFCLEGGKRMWDIRRWGIAKDVLNAPFEGLKYKIVDNPNDPDKKVDGGKMCILYQGDPIILSGSRYSDNNYLFPVPQSEIDLNPALTQNPGY
# How the values were obtained:
# Experiment in all cases: glycan array binding signal (z-score within array); higher = stronger binding
# Details in all cases: glycan notation: IUPAC condensed, linker removed
# [1] = biological target: Man(a1-3)[Man(a1-6)]Man(a1-6)[Man(a1-3)]Man
# How it was run: (§1)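 The binding signal is a Z-score computed within each array. Data were drawn from 3228 arrays in the Consortium for Functional Glycomics database, restricted to those with a known protein sequence. Scores were averaged over arrays of the same protein sequence at different concentrations or buffers, and over linkers, and negative values can be taken as non-binding.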
# [2] = biological target: Man(a1-3)[Man(a1-6)]Man(a1-6)[Man(a1-3)]Man(b1-4)GlcNAc(b1-4)GlcNAc
# How it was run: as §1
# [3] = biological target: Man(a1-3)[Man(a1-6)]Man(b1-4)GlcNAc(b1-4)GlcNAc
# How it was run: as §1
# [4] = biological target: Man(a1-3)[Man(a1-6)]Man(b1-4)GlcNAc(b1-4)[Fuc(a1-6)]GlcNAc
# How it was run: as §1
# [5] = biological target: Man(a1-6)Man
# How it was run: as §1
# [6] = biological target: Man(b1-4)GlcNAc
# How it was run: as §1
# [7] = biological target: MurNAc(b1-4)GlcNAc
# How it was run: as §1
# [8] = biological target: Neu5Ac(a2-3)Gal
# How it was run: as §1
# [9] = biological target: Neu5Ac(a2-3)Gal(b1-3)GalNAc
# How it was run: as §1
# [10] = biological target: Neu5Ac(a2-3)Gal(b1-3)GalNAc(b1-3)Gal(a1-4)Gal(b1-4)Glc
# How it was run: as §1
# [11] = biological target: Neu5Ac(a2-3)Gal(b1-3)GalNAc(b1-4)[Neu5Ac(a2-3)]Gal(b1-4)Glc
# How it was run: as §1
# [12] = biological target: Neu5Ac(a2-3)Gal(b1-3)GalNAc(b1-4)[Neu5Ac(a2-8)Neu5Ac(a2-3)]Gal(b1-4)Glc
# How it was run: as §1
# [13] = biological target: Neu5Ac(a2-3)Gal(b1-3)GalNAc6S
# How it was run: as §1
# [14] = biological target: Neu5Ac(a2-3)Gal(b1-3)GlcNAc
# How it was run: as §1
# [15] = biological target: Neu5Ac(a2-3)Gal(b1-3)GlcNAc(b1-2)Man
# How it was run: as §1
# [16] = biological target: Neu5Ac(a2-3)Gal(b1-3)GlcNAc(b1-2)Man(a1-3)[GlcNAc(b1-4)][Neu5Ac(a2-3)Gal(b1-3)GlcNAc(b1-2)Man(a1-6)]Man(b1-4)GlcNAc(b1-4)GlcNAc
# How it was run: as §1
# [17] = biological target: Neu5Ac(a2-3)Gal(b1-3)GlcNAc(b1-2)Man(a1-3)[Neu5Ac(a2-3)Gal(b1-3)GlcNAc(b1-2)Man(a1-6)]Man(b1-4)GlcNAc(b1-4)GlcNAc
# How it was run: as §1
# [18] = biological target: Neu5Ac(a2-3)Gal(b1-3)GlcNAc(b1-3)Gal(b1-3)GlcNAc
# How it was run: as §1
# [19] = biological target: Neu5Ac(a2-3)Gal(b1-3)GlcNAc(b1-3)Gal(b1-4)GlcNAc
# How it was run: as §1
# [20] = biological target: Neu5Ac(a2-3)Gal(b1-3)GlcNAc(b1-3)GalNAc
# How it was run: as §1
# [21] = biological target: Neu5Ac(a2-3)Gal(b1-3)GlcNAc(b1-4)Gal(b1-4)Glc
# How it was run: as §1
# [22] = biological target: Neu5Ac(a2-3)Gal(b1-3)GlcNAc(b1-6)GalNAc
# How it was run: as §1
# [23] = biological target: Neu5Ac(a2-3)Gal(b1-3)GlcNAc6S
# How it was run: as §1
# [24] = biological target: Neu5Ac(a2-3)Gal(b1-3)[Fuc(a1-4)]GlcNAc
# How it was run: as §1
# [25] = biological target: Neu5Ac(a2-3)Gal(b1-3)[Fuc(a1-4)]GlcNAc(b1-3)Gal(b1-3)[Fuc(a1-4)]GlcNAc
# How it was run: as §1
# [26] = biological target: Neu5Ac(a2-3)Gal(b1-3)[Fuc(a1-4)]GlcNAc(b1-3)Gal(b1-4)[Fuc(a1-3)]GlcNAc
# How it was run: as §1
# [27] = biological target: Neu5Ac(a2-3)Gal(b1-3)[GlcNAc(b1-6)]GalNAc
# How it was run: as §1
# [28] = biological target: Neu5Ac(a2-3)Gal(b1-3)[Neu5Ac(a2-6)]GalNAc
# How it was run: as §1
# [29] = biological target: Neu5Ac(a2-3)Gal(b1-3)[Neu5Ac(a2-6)]GlcNAc(b1-3)[Fuc(a1-3)[Gal(b1-4)]GlcNAc(b1-6)]Gal(b1-4)Glc
# How it was run: as §1
# [30] = biological target: Neu5Ac(a2-3)Gal(b1-3)]Neu5Ac(a2-3)Gal(b1-4)]GlcNAc
# How it was run: as §1
# [31] = biological target: Neu5Ac(a2-3)Gal(b1-4)Glc
# How it was run: as §1
# [32] = biological target: Neu5Ac(a2-3)Gal(b1-4)GlcNAc
# How it was run: as §1
# [33] = biological target: Neu5Ac(a2-3)Gal(b1-4)GlcNAc(b1-2)Man
# How it was run: as §1
# [34] = biological target: Neu5Ac(a2-3)Gal(b1-4)GlcNAc(b1-2)Man(a1-3)[GlcNAc(b1-4)][Neu5Ac(a2-3)Gal(b1-4)GlcNAc(b1-2)Man(a1-6)]Man(b1-4)GlcNAc(b1-4)GlcNAc
# How it was run: as §1
# [35] = biological target: Neu5Ac(a2-3)Gal(b1-4)GlcNAc(b1-2)Man(a1-3)[Neu5Ac(a2-3)Gal(b1-4)GlcNAc(b1-2)Man(a1-6)]Man(b1-4)GlcNAc(b1-4)GlcNAc
# How it was run: as §1
# [36] = biological target: Neu5Ac(a2-3)Gal(b1-4)GlcNAc(b1-2)Man(a1-3)[Neu5Ac(a2-3)Gal(b1-4)GlcNAc(b1-2)Man(a1-6)]Man(b1-4)GlcNAc(b1-4)[Fuc(a1-6)]GlcNAc
# How it was run: as §1
# [37] = biological target: Neu5Ac(a2-3)Gal(b1-4)GlcNAc(b1-2)Man(a1-3)[Neu5Ac(a2-6)Gal(b1-4)GlcNAc(b1-2)Man(a1-6)]Man(b1-4)GlcNAc(b1-4)GlcNAc
# How it was run: as §1
# [38] = biological target: Neu5Ac(a2-3)Gal(b1-4)GlcNAc(b1-2)[Neu5Ac(a2-3)Gal(b1-4)GlcNAc(b1-4)]Man(a1-3)[GlcNAc(b1-4)][Neu5Ac(a2-3)Gal(b1-4)GlcNAc(b1-2)[Neu5Ac(a2-3)Gal(b1-4)GlcNAc(b1-6)]Man(a1-6)]Man(b1-4)GlcNAc(b1-4)GlcNAc
# How it was run: as §1
binder,measurement,setting,value
B1,glycan array binding signal (z-score),[1],-0.075
same,glycan array binding signal (z-score),[2],-0.602
same,glycan array binding signal (z-score),[3],-0.762
same,glycan array binding signal (z-score),[4],-0.452
same,glycan array binding signal (z-score),[5],0.514
same,glycan array binding signal (z-score),[6],-0.722
same,glycan array binding signal (z-score),[7],-0.184
same,glycan array binding signal (z-score),[8],-0.082
same,glycan array binding signal (z-score),[9],-0.541
same,glycan array binding signal (z-score),[10],-0.469
same,glycan array binding signal (z-score),[11],-0.236
same,glycan array binding signal (z-score),[12],-0.153
same,glycan array binding signal (z-score),[13],-0.665
same,glycan array binding signal (z-score),[14],-0.072
same,glycan array binding signal (z-score),[15],0.093
same,glycan array binding signal (z-score),[16],-0.52
same,glycan array binding signal (z-score),[17],0.72
same,glycan array binding signal (z-score),[18],-1.12
same,glycan array binding signal (z-score),[19],-0.932
same,glycan array binding signal (z-score),[20],-0.854
same,glycan array binding signal (z-score),[21],-0.36
same,glycan array binding signal (z-score),[22],0.298
same,glycan array binding signal (z-score),[23],-0.434
same,glycan array binding signal (z-score),[24],-0.052
same,glycan array binding signal (z-score),[25],0.496
same,glycan array binding signal (z-score),[26],1.46
same,glycan array binding signal (z-score),[27],-0.721
same,glycan array binding signal (z-score),[28],0.105
same,glycan array binding signal (z-score),[29],0.395
same,glycan array binding signal (z-score),[30],-1.08
same,glycan array binding signal (z-score),[31],-0.868
same,glycan array binding signal (z-score),[32],-0.18
same,glycan array binding signal (z-score),[33],-0.048
same,glycan array binding signal (z-score),[34],0.058
same,glycan array binding signal (z-score),[35],-0.397
same,glycan array binding signal (z-score),[36],-0.571
same,glycan array binding signal (z-score),[37],-0.704
same,glycan array binding signal (z-score),[38],-0.336

# An excerpt from further up, as a working copy:
binder,measurement,setting,value
B1,glycan array binding signal (z-score),[35],-0.397
same,glycan array binding signal (z-score),[36],-0.571
